These are yes or no findings as the source states them, for the method shown. Binding seen in cells or lysates may run through a third protein. Some results given as binding are weak or reduced against the parent protein; the word gives no strength.
Target: DDX5 (human (endogenous in 5637 and SW780)) (UniProt P17844)
Experiment: co-IP; anti-DDX5 antibody incubated with lysates of 5637 and SW780 cells (immunoprecipitation lysis buffer with PMSF) at 4°C overnight; complexes enriched with magnetic beads, analysed by western blot

By UniProt entry, the sequences of proteins in these tests, tags left out.
UniProt P17844: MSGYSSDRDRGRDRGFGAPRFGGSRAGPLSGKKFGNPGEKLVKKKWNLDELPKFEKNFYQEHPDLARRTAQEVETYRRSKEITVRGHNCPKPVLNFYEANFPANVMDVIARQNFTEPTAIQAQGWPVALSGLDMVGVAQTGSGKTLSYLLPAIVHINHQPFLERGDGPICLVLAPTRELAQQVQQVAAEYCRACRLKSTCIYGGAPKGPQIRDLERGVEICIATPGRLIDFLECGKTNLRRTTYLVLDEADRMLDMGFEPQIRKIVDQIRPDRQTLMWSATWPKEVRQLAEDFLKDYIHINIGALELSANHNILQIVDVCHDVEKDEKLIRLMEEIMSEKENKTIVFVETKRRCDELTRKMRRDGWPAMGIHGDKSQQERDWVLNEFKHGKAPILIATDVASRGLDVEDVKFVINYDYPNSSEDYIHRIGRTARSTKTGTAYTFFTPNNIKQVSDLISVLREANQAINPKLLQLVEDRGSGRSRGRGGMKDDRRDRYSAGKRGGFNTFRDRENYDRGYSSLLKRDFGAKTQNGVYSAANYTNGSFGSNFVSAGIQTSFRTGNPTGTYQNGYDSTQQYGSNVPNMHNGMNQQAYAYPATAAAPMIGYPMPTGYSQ
UniProt P35222: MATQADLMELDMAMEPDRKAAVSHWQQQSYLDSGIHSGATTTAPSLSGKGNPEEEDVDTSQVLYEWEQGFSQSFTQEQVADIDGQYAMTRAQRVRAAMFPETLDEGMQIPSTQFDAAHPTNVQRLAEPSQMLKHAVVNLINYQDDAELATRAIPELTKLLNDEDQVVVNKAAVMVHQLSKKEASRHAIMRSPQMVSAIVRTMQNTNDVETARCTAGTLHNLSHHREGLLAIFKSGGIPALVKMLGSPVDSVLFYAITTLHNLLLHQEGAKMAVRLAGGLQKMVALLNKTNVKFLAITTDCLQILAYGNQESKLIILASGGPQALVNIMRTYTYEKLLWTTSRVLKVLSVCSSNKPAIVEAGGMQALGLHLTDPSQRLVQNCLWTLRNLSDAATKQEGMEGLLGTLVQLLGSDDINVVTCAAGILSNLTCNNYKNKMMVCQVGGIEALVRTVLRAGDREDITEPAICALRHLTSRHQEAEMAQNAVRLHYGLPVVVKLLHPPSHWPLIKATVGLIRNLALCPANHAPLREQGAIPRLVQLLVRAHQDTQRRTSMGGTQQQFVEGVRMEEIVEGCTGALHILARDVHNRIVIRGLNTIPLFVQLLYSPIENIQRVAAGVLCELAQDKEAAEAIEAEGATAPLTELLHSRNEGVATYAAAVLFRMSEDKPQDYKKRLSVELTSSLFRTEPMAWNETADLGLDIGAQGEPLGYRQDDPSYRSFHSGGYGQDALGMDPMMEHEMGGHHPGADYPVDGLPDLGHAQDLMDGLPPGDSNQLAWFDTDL

## β-catenin (from UniProt P35222 1-781)
  binding: binds
